PubChem BioAssay AID504786 – Drosophila RNAi Screening Center – 2011
The deposit covers about 21,000 reagents; shown is a random part of those with a known target gene and a result. 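Primary screen; positive scores mean lost reporter signal, so the sign may be inverted from the usual convention.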 Reagents against one gene are numbered here. No sequences are given here.

Purpose: 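Positive regulators of HIF-driven reporter output in Drosophila cells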 (primary screen)
Cell system: Drosophila S2 cells with a stable HIF luciferase reporter
Reagent: long dsRNA against Drosophila genes, about 0.2 µg dsRNA per well of a 384-well plate
Duration: three days of knock-down, then 20 h of DFO before reading
Treatment: desferrioxamine (DFO) at 100 µM, an iron chelator that mimics hypoxia, for 20 h
Measured: 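HIF reporter luminescence in cells given 100 µM DFO for 20 h, using the mouse ldh-a hypoxia-response element, scored as per-plate z-scores; higher means greater loss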
Direction: z-score: higher = stronger loss of HIF reporter signal

The opening 2 entries as a preview:
NimC2 (Nimrod C2) — z-score, replicate 1 = -0.1; z-score, replicate 2 = -0.5
Arl8 (ADP ribosylation factor-like 8) — z-score, replicate 1 = -0.3; z-score, replicate 2 = -0.4

Main list, from the start:
NimC2 (Nimrod C2) — z-score, replicate 1 = -0.1; z-score, replicate 2 = -0.5
Arl8 (ADP ribosylation factor-like 8) — z-score, replicate 1 = -0.3; z-score, replicate 2 = -0.4
Shrm (Shroom) #1 — z-score, replicate 1 = 0.7; z-score, replicate 2 = 1
Shrm (Shroom) #2 — z-score, replicate 1 = -0.1; z-score, replicate 2 = 0
Shrm (Shroom) #3 — z-score, replicate 1 = -0.2; z-score, replicate 2 = -0.4
AOX4 (Aldehyde oxidase 4) — z-score, replicate 1 = -0.2; z-score, replicate 2 = -0.3
CG10912 — z-score, replicate 1 = -0.1; z-score, replicate 2 = -0.3
rib (ribbon) — z-score, replicate 1 = -0.4; z-score, replicate 2 = -0.8
Cyp12c1 (Cytochrome P450 12c1) — z-score, replicate 1 = -0.3; z-score, replicate 2 = 0
ccb (central complex broad) — z-score, replicate 1 = -0.2; z-score, replicate 2 = -0.9
Actbeta (Activin-beta) #1 — z-score, replicate 1 = -0.3; z-score, replicate 2 = -0.2
Actbeta (Activin-beta) #2 — z-score, replicate 1 = -0.4; z-score, replicate 2 = -0.4
CG5665 — z-score, replicate 1 = -0.1; z-score, replicate 2 = 0
CG3732 — z-score, replicate 1 = -0.3; z-score, replicate 2 = -0.4
Sk2 (Sphingosine kinase 2) — z-score, replicate 1 = 0; z-score, replicate 2 = 0
laf (labial associated factor) — z-score, replicate 1 = -0.2; z-score, replicate 2 = 0.1
